Assay results from paper PMC3965549, “Evidence for LINC1-SUN Associations at the Plant Nuclear Periphery” (PLoS ONE, 2014).
No constants are given. Whether binding was seen depends on the method and setting. Binding seen in cells or lysates may run through a third protein. Tags and fused reporters may be left off the sequences shown.

T1: AtLINC1-YFP (Arabidopsis, UniProt F4HRT5 1-1132)
T1 construct: Little Nuclei 1 (LINC1) of Arabidopsis; also called Little Nuclei 1
T1 sequence (looked up): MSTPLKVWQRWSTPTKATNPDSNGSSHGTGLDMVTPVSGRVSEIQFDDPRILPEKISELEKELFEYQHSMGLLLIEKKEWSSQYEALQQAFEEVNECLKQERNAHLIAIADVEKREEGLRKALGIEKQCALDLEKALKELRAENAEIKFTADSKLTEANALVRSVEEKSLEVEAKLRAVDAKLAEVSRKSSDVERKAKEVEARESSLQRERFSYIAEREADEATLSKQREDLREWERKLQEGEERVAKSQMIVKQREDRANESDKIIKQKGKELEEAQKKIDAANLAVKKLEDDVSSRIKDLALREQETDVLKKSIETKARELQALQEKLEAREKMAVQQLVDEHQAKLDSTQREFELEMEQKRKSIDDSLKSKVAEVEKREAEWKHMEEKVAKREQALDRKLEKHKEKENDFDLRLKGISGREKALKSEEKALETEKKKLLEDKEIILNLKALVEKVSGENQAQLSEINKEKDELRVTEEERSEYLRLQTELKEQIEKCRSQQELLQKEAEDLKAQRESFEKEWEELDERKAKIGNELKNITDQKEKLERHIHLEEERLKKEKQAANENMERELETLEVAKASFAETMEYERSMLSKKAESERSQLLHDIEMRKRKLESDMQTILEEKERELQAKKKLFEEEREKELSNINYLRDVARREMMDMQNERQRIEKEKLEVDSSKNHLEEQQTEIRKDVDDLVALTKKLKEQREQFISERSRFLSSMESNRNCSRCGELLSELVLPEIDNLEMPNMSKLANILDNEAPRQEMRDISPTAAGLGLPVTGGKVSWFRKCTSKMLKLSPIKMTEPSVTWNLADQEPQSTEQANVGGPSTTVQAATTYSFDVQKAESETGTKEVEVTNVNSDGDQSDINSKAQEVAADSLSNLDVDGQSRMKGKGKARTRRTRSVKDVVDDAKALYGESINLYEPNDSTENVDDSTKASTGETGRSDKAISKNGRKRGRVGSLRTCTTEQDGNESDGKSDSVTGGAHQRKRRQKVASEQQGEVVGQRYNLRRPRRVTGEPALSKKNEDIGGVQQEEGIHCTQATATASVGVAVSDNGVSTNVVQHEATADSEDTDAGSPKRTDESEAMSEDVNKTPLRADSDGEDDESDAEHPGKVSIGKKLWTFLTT


Biological target: T1, AtLINC1-YFP
Test: FRET or BRET; acceptor photobleaching FRET (apFRET) in N. benthamiana leaf cells 3 days after infiltration; CFP donor on the SUN constructs, YFP acceptor on AtLINC1; YFP bleached in a constant ROI; pre-bleach fluorescence as internal negative control; about 35 NE per sample

Binder | binding
AtSUN1ΔN-CFP (domain or fragment, UniProt Q9FF75 107-471) VVRIFAKQLGALLIIVGLIQLTRKMILKASSPSSPISSYETEMAFSGLESRIAEVDGLVKATTNSMQVQVELLDKKMEREAKVLRQEIERKASAFQSELKKIESRTESLEKSVDEVNAKPWVTKDELERIYEELKKGNVDDSAFSEISIDELRAYARDIMEKEIEKHAADGLGRVDYALASGGAFVMEHSDPYLVGKGSSWFATTMRRAHTNAVKMLSPSFGEPGQCFPLKGSEGYVQIRLRGPIIPEAFTLEHVAKSVAYDRSSAPKDCRVSGSLQGPESSAETENMQLLTEFTYDLDRSNAQTFNILESSSSGLIDTVRLDFTSNHGSDSHTCIYRFRVHGRAPDPVPVVGTNLDQDSSPESE | no binding
AtSUN2ΔN-CFP (domain or fragment, UniProt Q9SG79 105-455) KTVVRVFAKQFGALLLLVGLIQLIRKLTLKDSSLSSSNFPIETEMVLSELESRISAVDGLVKTTTKMMQVQVEFLDKKMDSESRALRQTIDSTSSVLHSELKKVESKTERLQVSVDELNAKPLVSREELERVYEELKKGKVGDSDVNIDKLRAYARDIVEKEIGKHVADGLGRVDYALASGGAFVMGHSDPFLVGNGRNWFGTSRRRVHSKAVKMLTPSFGEPGQCFPLKGSNGYVLVRLRAPIIPEAVTLEHVSKAVAYDRSSAPKDCRVSGWLGDIDMETETMPLLTEFSYDLDRSNAQTFDIADSAHSGLVNTVRLDFNSNHGSSSHTCIYRFRVHGRELDSVSVAHA | no binding
